# The structures given here were assigned with low confidence; some may be wrong.
# The chains behind the UniProt entries cited, without tags or fusion partners. Residues count along the entry.
# UniProt P19491, 22-883 limits assumed: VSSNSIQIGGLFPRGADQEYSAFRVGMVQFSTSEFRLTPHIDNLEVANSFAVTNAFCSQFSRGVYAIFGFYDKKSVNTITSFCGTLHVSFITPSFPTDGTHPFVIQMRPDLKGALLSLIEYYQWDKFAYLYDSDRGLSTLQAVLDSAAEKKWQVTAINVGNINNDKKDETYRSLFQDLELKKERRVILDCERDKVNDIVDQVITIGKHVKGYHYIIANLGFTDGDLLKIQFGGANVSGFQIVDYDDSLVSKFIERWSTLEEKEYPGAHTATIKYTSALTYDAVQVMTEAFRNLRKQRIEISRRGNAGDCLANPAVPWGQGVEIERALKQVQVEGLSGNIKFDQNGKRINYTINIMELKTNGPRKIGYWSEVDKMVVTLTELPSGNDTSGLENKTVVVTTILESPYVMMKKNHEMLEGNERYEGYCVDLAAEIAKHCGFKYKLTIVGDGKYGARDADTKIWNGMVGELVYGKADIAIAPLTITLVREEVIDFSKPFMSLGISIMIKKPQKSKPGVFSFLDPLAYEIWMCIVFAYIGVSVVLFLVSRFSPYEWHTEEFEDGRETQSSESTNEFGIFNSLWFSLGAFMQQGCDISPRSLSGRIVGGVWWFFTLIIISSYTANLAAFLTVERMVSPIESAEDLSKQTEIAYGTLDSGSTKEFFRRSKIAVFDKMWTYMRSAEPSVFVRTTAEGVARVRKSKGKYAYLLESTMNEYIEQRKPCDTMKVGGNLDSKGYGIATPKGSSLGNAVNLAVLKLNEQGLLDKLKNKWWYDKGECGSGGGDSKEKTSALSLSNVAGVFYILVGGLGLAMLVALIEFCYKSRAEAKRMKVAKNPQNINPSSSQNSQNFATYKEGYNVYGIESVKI
# UniProt P42260, 32-908 limits assumed: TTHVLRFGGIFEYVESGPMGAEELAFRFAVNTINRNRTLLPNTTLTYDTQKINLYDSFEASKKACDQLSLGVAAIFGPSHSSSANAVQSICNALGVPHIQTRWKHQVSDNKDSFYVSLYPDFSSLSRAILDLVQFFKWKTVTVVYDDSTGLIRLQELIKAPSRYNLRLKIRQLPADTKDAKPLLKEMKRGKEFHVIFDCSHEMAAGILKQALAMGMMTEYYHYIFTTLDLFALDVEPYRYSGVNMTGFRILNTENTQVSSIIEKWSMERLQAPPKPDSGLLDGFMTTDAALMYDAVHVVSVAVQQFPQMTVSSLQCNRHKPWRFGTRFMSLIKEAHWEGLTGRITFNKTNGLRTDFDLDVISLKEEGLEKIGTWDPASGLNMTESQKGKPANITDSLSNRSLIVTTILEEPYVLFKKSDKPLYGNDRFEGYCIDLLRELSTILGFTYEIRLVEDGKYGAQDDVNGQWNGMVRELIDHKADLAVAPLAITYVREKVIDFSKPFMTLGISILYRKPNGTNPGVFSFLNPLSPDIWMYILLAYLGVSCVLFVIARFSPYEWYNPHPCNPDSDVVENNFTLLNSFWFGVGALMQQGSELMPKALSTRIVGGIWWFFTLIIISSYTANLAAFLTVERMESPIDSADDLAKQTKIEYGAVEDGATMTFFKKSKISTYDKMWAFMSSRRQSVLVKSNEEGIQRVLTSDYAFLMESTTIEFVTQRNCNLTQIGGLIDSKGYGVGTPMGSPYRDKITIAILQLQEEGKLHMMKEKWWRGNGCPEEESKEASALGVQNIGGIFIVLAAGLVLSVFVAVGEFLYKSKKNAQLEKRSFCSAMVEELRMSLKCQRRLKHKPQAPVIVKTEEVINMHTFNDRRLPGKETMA
# UniProt P22756, 31-949 limits assumed: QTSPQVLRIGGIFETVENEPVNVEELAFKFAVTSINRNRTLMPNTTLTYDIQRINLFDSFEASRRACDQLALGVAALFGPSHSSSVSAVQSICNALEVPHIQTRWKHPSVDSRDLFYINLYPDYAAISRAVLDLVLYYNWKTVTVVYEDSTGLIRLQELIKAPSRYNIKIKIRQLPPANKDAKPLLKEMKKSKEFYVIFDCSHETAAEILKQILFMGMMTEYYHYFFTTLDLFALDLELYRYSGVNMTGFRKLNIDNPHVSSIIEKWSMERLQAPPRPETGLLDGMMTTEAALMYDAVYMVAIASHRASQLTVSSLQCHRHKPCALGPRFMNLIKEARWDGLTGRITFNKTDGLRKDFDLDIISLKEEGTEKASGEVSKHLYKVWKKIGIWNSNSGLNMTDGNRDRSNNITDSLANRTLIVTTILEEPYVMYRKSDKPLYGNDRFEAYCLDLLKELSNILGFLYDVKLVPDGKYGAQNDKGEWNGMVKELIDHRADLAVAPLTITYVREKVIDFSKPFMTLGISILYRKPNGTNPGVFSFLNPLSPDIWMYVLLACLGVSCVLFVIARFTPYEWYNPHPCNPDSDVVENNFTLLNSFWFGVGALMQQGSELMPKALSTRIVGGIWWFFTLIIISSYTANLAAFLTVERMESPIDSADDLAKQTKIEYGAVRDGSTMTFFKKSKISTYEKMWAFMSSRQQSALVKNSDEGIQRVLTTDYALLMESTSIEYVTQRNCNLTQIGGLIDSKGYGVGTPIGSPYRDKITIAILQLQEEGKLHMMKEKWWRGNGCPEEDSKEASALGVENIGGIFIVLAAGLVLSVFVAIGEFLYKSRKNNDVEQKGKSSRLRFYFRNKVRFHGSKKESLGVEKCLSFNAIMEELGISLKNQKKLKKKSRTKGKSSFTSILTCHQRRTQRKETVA
# UniProt Q63273, 15-979 limits assumed: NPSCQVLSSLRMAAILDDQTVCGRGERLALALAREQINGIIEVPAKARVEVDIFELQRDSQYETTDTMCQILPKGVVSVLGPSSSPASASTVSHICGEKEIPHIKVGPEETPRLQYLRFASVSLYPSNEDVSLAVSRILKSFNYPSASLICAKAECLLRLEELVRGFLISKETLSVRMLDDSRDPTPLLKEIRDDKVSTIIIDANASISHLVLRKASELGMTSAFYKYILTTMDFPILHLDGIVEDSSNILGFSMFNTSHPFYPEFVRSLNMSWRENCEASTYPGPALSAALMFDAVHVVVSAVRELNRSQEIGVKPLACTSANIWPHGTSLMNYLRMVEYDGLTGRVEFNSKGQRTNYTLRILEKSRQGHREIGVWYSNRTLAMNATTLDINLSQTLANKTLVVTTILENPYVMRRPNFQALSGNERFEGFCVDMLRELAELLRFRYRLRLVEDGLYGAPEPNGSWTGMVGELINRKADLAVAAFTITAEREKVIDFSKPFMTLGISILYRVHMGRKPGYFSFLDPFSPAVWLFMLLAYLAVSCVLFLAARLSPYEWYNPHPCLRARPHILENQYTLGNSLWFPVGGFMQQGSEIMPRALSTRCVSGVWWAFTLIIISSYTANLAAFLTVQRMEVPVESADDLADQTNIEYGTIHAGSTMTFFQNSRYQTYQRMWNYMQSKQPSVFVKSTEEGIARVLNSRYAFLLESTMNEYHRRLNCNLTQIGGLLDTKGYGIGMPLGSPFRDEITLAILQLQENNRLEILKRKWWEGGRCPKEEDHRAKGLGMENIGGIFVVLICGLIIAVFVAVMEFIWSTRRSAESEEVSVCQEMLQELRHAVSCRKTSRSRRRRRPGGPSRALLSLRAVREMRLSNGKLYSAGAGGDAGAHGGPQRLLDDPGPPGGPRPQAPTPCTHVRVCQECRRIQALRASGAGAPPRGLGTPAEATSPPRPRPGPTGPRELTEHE
# UniProt P42264, 32-919 limits assumed: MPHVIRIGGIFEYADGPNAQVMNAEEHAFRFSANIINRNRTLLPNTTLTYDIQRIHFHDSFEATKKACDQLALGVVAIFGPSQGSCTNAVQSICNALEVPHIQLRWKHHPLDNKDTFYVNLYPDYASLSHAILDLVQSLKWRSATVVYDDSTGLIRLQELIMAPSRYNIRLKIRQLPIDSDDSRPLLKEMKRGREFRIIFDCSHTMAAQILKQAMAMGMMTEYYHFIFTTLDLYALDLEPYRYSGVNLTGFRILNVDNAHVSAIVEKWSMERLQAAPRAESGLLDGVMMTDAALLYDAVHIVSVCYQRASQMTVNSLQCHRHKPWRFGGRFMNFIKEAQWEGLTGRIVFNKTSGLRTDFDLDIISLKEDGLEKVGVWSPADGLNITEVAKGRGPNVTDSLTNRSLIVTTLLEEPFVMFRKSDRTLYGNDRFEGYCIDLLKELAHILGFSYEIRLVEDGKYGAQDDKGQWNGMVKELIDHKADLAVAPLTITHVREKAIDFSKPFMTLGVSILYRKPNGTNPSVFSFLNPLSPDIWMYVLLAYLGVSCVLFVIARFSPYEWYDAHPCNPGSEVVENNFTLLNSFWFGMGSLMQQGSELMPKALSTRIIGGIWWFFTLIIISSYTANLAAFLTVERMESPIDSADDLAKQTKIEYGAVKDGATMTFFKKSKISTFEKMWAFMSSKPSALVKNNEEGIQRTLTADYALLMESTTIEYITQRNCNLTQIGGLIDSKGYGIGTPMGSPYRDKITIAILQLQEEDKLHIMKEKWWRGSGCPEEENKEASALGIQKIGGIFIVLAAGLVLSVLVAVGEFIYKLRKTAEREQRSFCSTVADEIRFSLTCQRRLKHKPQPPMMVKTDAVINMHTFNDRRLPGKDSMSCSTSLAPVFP
# How the values were obtained:
# GluA2 = GluA2 (Rattus norvegicus, UniProt P19491); assay: Radioligand binding at recombinant homomeric GluA2 in Sf9 membranes; settings: read-out: Ki GluA2, recombinant rat homomeric receptor, [3H]-(RS)-AMPA, mean ± SEM, tested form: 2 H2O
# GluK2 = GluK2 (Rattus norvegicus, UniProt P42260); assay: Radioligand binding at recombinant homomeric GluK2 in Sf9 membranes; settings: read-out: Ki GluK2, recombinant rat homomeric receptor, [3H]-kainic acid, mean ± SEM, tested form: 2 H2O
# GluK1 = GluK1 (Rattus norvegicus, UniProt P22756); assay: Radioligand binding at recombinant homomeric GluK1 in Sf9 membranes; settings: read-out: Ki GluK1, recombinant rat homomeric receptor, [3H]-(S)-NF608, mean ± SEM, tested form: 2 H2O
# GluK5 = GluK5 (Rattus norvegicus, UniProt Q63273); assay: Radioligand binding at recombinant homomeric GluK5 in Sf9 membranes; settings: read-out: Ki GluK5, recombinant rat homomeric receptor, [3H]-kainic acid, mean ± SEM, tested form: 2 H2O
# GluK3 = GluK3 (Rattus norvegicus, UniProt P42264); assay: Radioligand binding at recombinant homomeric GluK3 in Sf9 membranes; settings: read-out: Ki GluK3, recombinant rat homomeric receptor, [3H]-kainic acid, mean ± SEM, tested form: 2 H2O
smiles,measurement,setting,value
O=C(Nn1c(=O)c(=O)[nH]c2cc(C#Cc3ccc(S(=O)(=O)F)cc3)ccc21)c1ccccc1,Ki,GluA2,100 µM
same,Ki,GluK2,> 100 µM
same,Ki,GluK1,1.1 µM
same,Ki,GluK5,> 100 µM
same,Ki,GluK3,8.1 µM

# — PMC9369419 (International Journal of Molecular Sciences, 2022)
